Results as given in PubChem BioAssay AID1487 (National Center for Advancing Translational Sciences (NCATS), 2009).
This is one part of the list. These are further read-outs of the screen, such as a control signal, another cell line or another target. No call is given for them. Most of these compounds were active or inconclusive in the main read-out, so they are no random draw. The note in brackets gives the kind of curve behind each potency; many fits are weak.

Assay: qHTS Assay for Modulators of Lamin A Splicing
Conditions: HeLa LMNA splicing GFP/RFP minigene ratio, 48 h
Procedure, shortened: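 S3 HeLa cells stably expressing lamin A-EGFP splicing minigene plus DsRed2, 600 cells/well, 48 h compound exposure at 37C. Laser-scanning cytometry; analysed as GFP (500-530 nm)/RFP (575-640 nm) total intensity ratio; 0.5% DMSO vehicle.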

[1] = measured here: GFP splicing reporter channel
[2] = measured here: RFP viability control channel

SMILES | AC50 [1] | AC50 [2]
Cc1ccc(NC(=O)c2ccc3c(c2)OCCO3)cc1S(=O)(=O)Nc1cccc(Cl)c1 | 35.5 µM [falling, single point] | –
COC(=O)N/N=C/c1ccc(OCCSc2ccc(Cl)cc2)c(OC)c1 | – | 14.1 µM [rising, single point]
C[C@@H](C(=O)O)[C@H]1C[C@]1(C)[C@H](NC(=O)OCc1ccccc1)c1ccccc1 | 8.91 µM [falling, partial curve, poor fit] | 22.4 µM [falling, partial curve, poor fit]
Cc1ncsc1CCC(=O)N1CCCC(C(=O)c2ccc3c(c2)OCO3)C1 (configuration not stated) | 0.01 µM [falling, full curve, poor fit] | 0.01 µM [falling, full curve, poor fit]
O=S(=O)(Nc1ccc(-c2nc3cccnc3s2)cc1)c1ccc(Cl)s1 | – | 12.6 µM [rising, partial curve]
CCn1c(C)nc2cc(C(=O)N/N=C/c3ccccc3C)ccc21 | – | 0.708 µM [falling, full curve]
COc1ccc(Nc2nc3ccccc3nc2-n2nc(C)cc2C)cc1 | – | 12.6 µM [falling, partial curve, poor fit]
COC(=O)C1NN=C(C(=O)c2ccc(Cl)cc2)C1c1ccc(OC)cc1 (configuration not stated) | – | 35.5 µM [rising, single point]
O=C(c1nn2c(C(F)(F)F)cc(-c3cccs3)nc2c1Cl)N1CCCc2ccccc21 | – | 22.4 µM [rising, single point]
COc1ccccc1/C=C/C(=O)NCCC1=CCCCC1 | 1.58 µM [falling, full curve, poor fit] | –
COc1ccc(NS(=O)(=O)c2ccc3c(c2)NC(=O)CO3)cc1 | – | 35.5 µM [rising, single point]
CN(C)/N=C/c1cc(Cl)cc([N+](=O)[O-])c1O | 11.2 µM [rising, single point] | 20 µM [rising, partial curve]
Cc1cccc(C)c1OCC(=O)Nc1ccc(NC(=O)c2ccco2)cc1 | 3.55 µM [falling, full curve] | 3.98 µM [falling, full curve]
CCOc1cc(-c2nnc(SCC(=O)NCCCOC)nc2-c2ccc(OC)c(OCC)c2)ccc1OC | – | 35.5 µM [rising, single point]
CCOC(=O)/C(C#N)=C/c1cc2ccc(C)cc2nc1Cl | 22.4 µM [rising, single point] | 12.6 µM [rising, partial curve, poor fit]
O=C(Nc1ccccc1Br)C1CCN(C(=O)Cc2ccccc2)CC1 | 1.78 µM [rising, full curve, poor fit] | –
O=C(NCc1ccccc1Cl)c1cccc(NC(=O)c2ccccc2)c1 | – | 35.5 µM [rising, single point]

SMILES | AC50 [1] | AC50 [2]
Cc1nc2ccc(NC(=O)CCS(=O)(=O)c3ccc(Cl)cc3)cc2s1 | 12.6 µM [rising, partial curve, poor fit] | 12.6 µM [rising, partial curve]
O=C1c2ccc3c4c(ccc(c24)C(=O)N1c1ccc2ccccc2c1)CC3 | 14.1 µM [falling, partial curve, poor fit] | –
CCCSc1ccc(-c2nn(-c3ccccc3)cc2/C=C(/C#N)C(=O)N2CCOCC2)cc1 | – | 10 µM [rising, partial curve]
CCCCC[C@H](CC(=O)NO)C(=O)N[C@H](C(=O)N1CCC[C@H]1CO)C(C)C | 0.00562 µM [falling, full curve, poor fit] | 14.1 µM [rising, partial curve, poor fit]
Cc1ccccc1C(=O)N/N=C/c1ccc(OCC(=O)N2CCCCC2)cc1 | 1.41 µM [falling, full curve, poor fit] | 1 µM [falling, full curve, poor fit]
COc1cccc(-n2nnnc2SCC(=O)Nc2nc3c(s2)CCCC3)c1 | – | 17.8 µM [rising, single point]
N#CC1=C(N)n2c(s/c(=C\c3cccs3)c2=O)=C(C#N)C1c1cccs1 (configuration not stated) | – | 35.5 µM [rising, single point]
O=C(NCc1ccc(F)cc1)c1ccc(N2CCc3ccccc32)c([N+](=O)[O-])c1 | 35.5 µM [rising, single point] | 22.4 µM [rising, partial curve]
COc1ccc2[nH]cc(CCNc3ncncc3-c3ccc4c(c3)OCO4)c2c1 | 3.16 µM [falling, full curve, poor fit] | 2.51 µM [falling, full curve, poor fit]
COc1ccc(C(CNC(=O)c2ccc(S(=O)(=O)N3CCOCC3)cc2)N2CCCCC2)cc1 (configuration not stated) | 10 µM [rising, single point] | –
CC(C)OCC1CC(CC(=O)NC(=S)Nc2cccc([N+](=O)[O-])c2)C(=O)O1 (configuration not stated) | 15.8 µM [rising, partial curve] | 25.1 µM [rising, single point]
COc1ccc(CNc2nc3ccccc3n2Cc2ccc(Cl)cc2)cc1OC | 6.31 µM [rising, single point] | 11.2 µM [rising, partial curve]
COc1cccc(NC(=O)Nc2ccc3c(c2)nc(C)n3C)c1 | 0.01 µM [falling, full curve, poor fit] | 0.01 µM [falling, full curve]
COc1cccc(Cn2c(=O)c(-c3ccc(F)cc3)nc3cnc(N4CCOCC4)nc32)c1 | – | 7.08 µM [falling, full curve, poor fit]
CCc1ccc(NC(=O)CSc2nc3ccccc3c(=O)n2CCC(=O)NC2CCCCC2)cc1 | 4.47 µM [falling, single point] | –
CC(=O)C1=C(C)NC(SCc2cccc3ccccc23)=C(C#N)C1c1ccco1 (configuration not stated) | 14.1 µM [rising, single point] | 17.8 µM [rising, partial curve]
